# Data: the supplement of paper PMC12823440, “Inhibitors supercharge kinase turnover through native proteolytic circuits” (Nature, 2025)
# The chains behind the UniProt entries cited, without tags or fusion partners. Where a name states a change or a piece, a line headed by the entry shows the natural chain unless it says otherwise.
# UniProt Q9BRS2: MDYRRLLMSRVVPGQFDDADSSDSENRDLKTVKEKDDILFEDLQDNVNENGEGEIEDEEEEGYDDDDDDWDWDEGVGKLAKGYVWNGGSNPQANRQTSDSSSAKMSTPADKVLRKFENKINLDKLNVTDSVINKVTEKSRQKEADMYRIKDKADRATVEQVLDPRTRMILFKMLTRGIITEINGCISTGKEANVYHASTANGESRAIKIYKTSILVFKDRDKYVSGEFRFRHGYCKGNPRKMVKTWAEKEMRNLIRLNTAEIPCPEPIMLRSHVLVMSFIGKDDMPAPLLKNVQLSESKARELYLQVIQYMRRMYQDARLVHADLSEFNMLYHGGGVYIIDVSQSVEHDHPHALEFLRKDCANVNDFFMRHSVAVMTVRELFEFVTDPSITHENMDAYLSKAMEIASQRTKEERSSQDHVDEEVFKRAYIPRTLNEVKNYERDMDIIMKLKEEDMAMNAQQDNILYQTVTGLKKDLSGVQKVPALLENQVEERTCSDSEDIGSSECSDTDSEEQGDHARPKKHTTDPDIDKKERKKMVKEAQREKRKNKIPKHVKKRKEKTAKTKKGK
# Counter-ions that a name gives are not always drawn. The list shows a part of the results. The calls rarely recur for the same compound in another form.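 In K562 cells expressing nanoluciferase-fused kinases, luminescence was recorded at 4 h intervals between 2 and 18 h, normalized as percent of control with DMSO at 100% and a positive control at 0%. A significant (2 sigma) signal drop marks a time point as decreased. The authors' rule for a hit is not shown and takes in more than the number of time points.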
# Target: RIOK1 (UniProt Q9BRS2)
# Experiment: number of time points (of 5) at which kinase-Nluc abundance scored as decreased, DMSO-normalised (count); higher = more persistent destabilization
# Conditions: K562; 2-18 h
row,Compound,number of time points
1,COc1ccc(Cn2cc(C(=O)N=Nc3c(O)[nH]c4c(C)cccc34)nn2)cc1 [MARK4 inhibitor 1] (10 µM),0
2,COc1cc([N+](=O)[O-])ccc1S(=O)(=O)N1C[C@@H](CN2CCN(c3ccccn3)CC2)[C@H](c2cccc(F)c2)C1 (relative stereo) (10 µM),0
3,Cc1cc(Nc2nc(N[C@@H](C)c3ccc(F)cc3)c(C#N)cc2F)n[nH]1 (10 µM),0
4,Cc1ccc(S(=O)(=O)/C=C/C#N)cc1 (10 µM),0
5,Cc1c(CN2CCN(S(C)(=O)=O)CC2)sc2c(N3CCOCC3)nc(-c3cnc(N)nc3)nc12 (2.5 µM),0
6,COc1ccc(-c2ccc3c(N4CCOC[C@@H]4C)nc(N4CCOC[C@@H]4C)nc3n2)cc1CO (2.5 µM),0
7,CCN(CC)S(=O)(=O)c1ccc(OC)c(N2CCN(C(=O)c3ccc(F)cc3C(F)(F)F)CC2)c1 (10 µM),0
8,CC1CN(C(=O)Nc2ccc(Cl)c(Cl)c2)C(=Nc2ccc(F)cc2)S1 (centres undefined) (10 µM),0
9,COCCO[C@@H]1[C@H](O)[C@@H](CO)O[C@H]1n1cnc2c(=O)[nH]c(N)nc21 [2′-O-(2-Methoxyethyl)guanosine] (10 µM),0
10,COc1cc(F)c(F)c(Nc2ccc(I)cc2F)c1NS(=O)(=O)C1(C[C@H](O)CO)CC1 [Refametinib] (10 µM),0
11,CC(C)=CC[C@H](O)C1=CC(=O)c2c(O)ccc(O)c2C1=O [(-)-Alkannin] (2.5 µM),0
12,C[C@@]1(O)CCC[C@H]1n1c(=O)c(C(F)F)cc2cnc(NC3CCN(S(C)(=O)=O)CC3)nc21 (2.5 µM),0
13,CS(=O)(=O)c1ccc(-c2noc(C(F)(F)F)c2-c2ccccc2)cc1 (10 µM),0
14,COc1ccc2[nH]cc(/C=C3\C(=O)Nc4ccc(NC(=O)CCN5CCCCC5)cc43)c2c1 (2.5 µM),0
15,O=C(Nc1ccc(F)cc1F)[C@H](NC(=S)Nc1cc(C(F)(F)F)cc(C(F)(F)F)c1)c1ccccc1 (2.5 µM),0
16,CC(C)CN[C@H]1CS(=O)(=O)C[C@@H]1S(=O)(=O)c1ccc(Cl)cc1 (10 µM),0
17,COc1ccc(C2CC(c3ccccc3)=NN2c2ccc(S(N)(=O)=O)cc2)cc1 (centres undefined) (10 µM),0
18,CC/C=C\C/C=C\C/C=C\CCCCCCCC(=O)O [α-Linolenic acid] (10 µM),0
19,O=C(Nc1nc2ccccc2[nH]1)c1cccc(-n2cccc2)c1 (10 µM),0
20,COc1ncc(-c2nc(N3CCOCC3)nc3c(CN4CCC(C(C)(C)O)CC4)cc(F)cc23)cc1NS(C)(=O)=O [Linperlisib] (10 µM),0

row,Compound,number of time points
1,COc1ccc([C@H]2c3[nH]c4ccc(Cl)cc4c3CCN2C(=O)Oc2ccc(Cl)cc2)cc1 (2.5 µM),0
2,COc1c(NC(=O)C(=O)c2ccc(OCCN3CCOCC3)c3ccccc23)cc(C(C)(C)C)cc1NS(C)(=O)=O (2.5 µM),0
3,COc1ccc([C@@H]2CC(=O)c3c(O)cc(O)cc3O2)cc1O [Hesperetin] (10 µM),0
4,N#Cc1cccc(-c2c[nH]c3ncnc(N4CCOCC4)c23)c1 (10 µM),0
5,C/C(=C1/C(=O)Nc2ccc(NC(N)=O)cc21)c1ccc[nH]1 (10 µM),0
6,Nc1ncnc2c1c(-c1ccc(Oc3ccccc3)cc1)nn2C1CCNCC1 [N-piperidine Ibrutinib (hydrochloride)] (10 µM),0
7,N#Cc1ccc2ncnc(NC3CCC(N4CCOCC4)CC3)c2c1 (centres undefined) (10 µM),0
8,CC(=O)c1c(C)c2cnc(Nc3ccc(N4CCN(CCCCNC(=O)COc5cccc6c5C(=O)N(C5CCC(=O)NC5=O)C6=O)CC4)cn3)nc2n(C2CCCC2)c1=O (centres undefined) (10 µM),0
9,CC(C)=CC(=O)CCC(=O)N1CCN(Cc2cc3nc(-c4cccc5[nH]ncc45)nc(N4CCOCC4)c3s2)CC1 (10 µM),0
10,Cc1ccc(S(=O)(=O)Nc2ccccc2C=Nc2ccccc2NS(=O)(=O)c2ccc(C)cc2)cc1 (10 µM),0
11,NCCN1CCN(C/C=C/C(=O)N2CCC[C@@H](n3nc(-c4ccc(Oc5ccccc5)cc4)c4c(N)ncnc43)C2)CC1 [Ibrutinib-MPEA] (10 µM),0
12,O=C(CNC(=O)c1ccc(-c2ccccc2)cc1)NC1CCCc2ccccc21 (centres undefined) [TAO Kinase inhibitor 1] (10 µM),0
13,CC(C)CN(CC(=O)N1CCN(CC(OCc2ccc3ccccc3c2)c2ccc(Cl)cc2Cl)CC1)CC(C)C (centres undefined) [LYN-1604 (dihydrochloride)] (2.5 µM),0
14,CO[C@H]1C[C@@H]2CC[C@@H](C)[C@@](O)(O2)C(=O)C(=O)N2CCCC[C@H]2C(=O)O[C@H]([C@H](C)C[C@@H]2CC[C@@H](O)[C@H](OC)C2)CC(=O)[C@H](C)/C=C(\C)[C@@H](O)[C@@H](OC)C(=O)[C@H](C)C[C@H](C)/C=C/C=C/C=C/1C [Rapamycin] (10 µM),0
15,Cc1ccc(Nc2cc(-c3cccc(N4C(=O)c5ccccc5C4=O)c3)ncn2)cc1NS(C)(=O)=O (10 µM),0
16,Nc1cc(Nc2ccc(S(N)(=O)=O)cc2)ncn1 (10 µM),0
17,CCOc1cc(C(=O)N2CCC(N3CCN(C)CC3)CC2)ccc1Nc1ncc2c(n1)N(C1CCCC1)c1ccccc1C(=O)N2C (10 µM),0
18,COCCOc1ccc(-c2cn(-c3ccccc3)c3nc[nH]c(=O)c23)cc1 (10 µM),0
19,Cc1cc(O)c(C(C)C)cc1N=O [Poloxime] (10 µM),1

# Shown with bars between the fields: part of the list above.
row | Compound | number of time points
13 | CC(C)CN(CC(=O)N1CCN(CC(OCc2ccc3ccccc3c2)c2ccc(Cl)cc2Cl)CC1)CC(C)C (centres undefined) [LYN-1604 (dihydrochloride)] (2.5 µM) | 0
14 | CO[C@H]1C[C@@H]2CC[C@@H](C)[C@@](O)(O2)C(=O)C(=O)N2CCCC[C@H]2C(=O)O[C@H]([C@H](C)C[C@@H]2CC[C@@H](O)[C@H](OC)C2)CC(=O)[C@H](C)/C=C(\C)[C@@H](O)[C@@H](OC)C(=O)[C@H](C)C[C@H](C)/C=C/C=C/C=C/1C [Rapamycin] (10 µM) | 0
